The text below walks through data of publication doi:10.1101/2025.07.07.663440.

Chains of the proteins cited; added tags and fusions are not shown.
UniProt Q13263: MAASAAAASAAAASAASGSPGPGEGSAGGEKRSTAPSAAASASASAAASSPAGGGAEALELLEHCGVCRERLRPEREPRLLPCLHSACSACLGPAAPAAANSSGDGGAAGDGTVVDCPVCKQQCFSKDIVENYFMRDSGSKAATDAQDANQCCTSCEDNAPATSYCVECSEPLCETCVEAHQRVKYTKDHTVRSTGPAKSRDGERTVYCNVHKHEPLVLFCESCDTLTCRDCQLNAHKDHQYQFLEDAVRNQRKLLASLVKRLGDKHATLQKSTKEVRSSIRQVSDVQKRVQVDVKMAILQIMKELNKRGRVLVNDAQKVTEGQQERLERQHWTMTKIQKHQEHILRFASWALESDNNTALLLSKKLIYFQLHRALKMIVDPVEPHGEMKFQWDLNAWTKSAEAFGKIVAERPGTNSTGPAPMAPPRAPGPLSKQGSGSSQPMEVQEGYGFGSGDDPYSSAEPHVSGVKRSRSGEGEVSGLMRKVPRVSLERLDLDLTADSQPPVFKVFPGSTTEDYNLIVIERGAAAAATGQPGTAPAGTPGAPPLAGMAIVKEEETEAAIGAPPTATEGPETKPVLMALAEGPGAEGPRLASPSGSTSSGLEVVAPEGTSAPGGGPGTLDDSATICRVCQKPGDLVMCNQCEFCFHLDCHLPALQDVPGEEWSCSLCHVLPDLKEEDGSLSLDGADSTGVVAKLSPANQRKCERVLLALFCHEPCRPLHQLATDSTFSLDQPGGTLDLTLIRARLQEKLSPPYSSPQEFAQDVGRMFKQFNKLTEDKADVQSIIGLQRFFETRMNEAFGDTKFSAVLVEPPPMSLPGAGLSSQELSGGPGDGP

The target of this test is PRPF8, endogenous (human (endogenous in HEK293T)) (UniProt Q6P2Q9). In words: affinity purification with mass spectrometry.

No constants are given. Whether binding was seen depends on the method and setting. In cells and extracts the contact can be indirect. These calls come from enrichment with a bait or labelling near it, and not all partners need be listed.

With “Tripartite motif-containing 28 protein (TRIM28), endogenous, non-phosphorylated state (from UniProt Q13263 1-835)”, the binding result is “binds”.
